Paper PMC9332703

Target: N terminus of S1 (S1 1-61) (rice)
Test: two-hybrid; WA1 and its truncations in pGADT7 (AD), C1 and S1 full-length or truncated in pGBKT7 (BD); yeast strain AH109; growth on SD-Trp/-Leu and SD-Trp/-Leu/-His/-Ade

## WA1 (WD40 for Anthocyanin biosynthesis), full length (from UniProt Q3V826)
  binding: binds

No constants are given. Whether binding was seen depends on the method and setting. A result given as binding can be weak or reduced; the word gives no strength.
